Reference: US20260137819A1 (Radionetics Oncology, Inc., priority 2022, published 2026)
Structures were worked out from names or drawings and are uncertain.

By UniProt entry, the sequences of proteins in these tests, tags left out. Residues count along the entry.
UniProt P23945, 18-695 limits assumed: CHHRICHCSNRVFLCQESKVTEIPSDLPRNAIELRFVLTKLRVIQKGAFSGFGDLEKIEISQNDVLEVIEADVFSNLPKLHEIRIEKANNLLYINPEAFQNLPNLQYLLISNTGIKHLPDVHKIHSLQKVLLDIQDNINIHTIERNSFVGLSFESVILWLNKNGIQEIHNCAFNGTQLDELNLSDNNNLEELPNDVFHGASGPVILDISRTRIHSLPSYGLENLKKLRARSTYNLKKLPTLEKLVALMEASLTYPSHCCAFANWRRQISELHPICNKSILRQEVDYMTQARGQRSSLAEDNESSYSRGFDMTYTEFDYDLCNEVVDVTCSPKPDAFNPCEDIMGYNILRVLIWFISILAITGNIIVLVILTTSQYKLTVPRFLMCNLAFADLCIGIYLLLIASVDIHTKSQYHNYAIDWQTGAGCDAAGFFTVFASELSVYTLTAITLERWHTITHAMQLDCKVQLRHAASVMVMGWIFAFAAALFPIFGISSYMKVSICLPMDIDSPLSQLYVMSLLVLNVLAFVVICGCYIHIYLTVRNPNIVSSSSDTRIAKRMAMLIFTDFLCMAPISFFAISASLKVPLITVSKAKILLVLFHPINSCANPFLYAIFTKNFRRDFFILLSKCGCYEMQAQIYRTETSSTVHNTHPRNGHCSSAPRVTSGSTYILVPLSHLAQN

Target: human follicle-stimulating hormone receptor (FSHR) (Homo sapiens, UniProt P23945)
Test: Measurement of agonist cAMP production by activation of human FSHR
Conditions: read-out: hFSHR Agonist cAMP EC50; CHO-K1 human FSHR cells, 30 minutes at 37° C., HTRF cAMP kit

COc1cc2c(cc1-c1cccc(NC(=O)CCC(=O)NCCCC[C@@H](NC(=O)[C@@H](C)NC(=O)[C@@H](CCC(=O)O)NC(=O)[C@@H](C)NC(=O)[C@@H](CCC(=O)O)NC(=O)[C@@H](C)NC(=O)CN3CCN(CC(=O)O)CCN(CC(=O)O)CCN(CC(=O)O)CC3)C(=O)N[C@H](C)C(N)=O)c1)-c1c(c(C(=O)N3CCOCC3(C)C)nn1-c1cc(Cl)cc(Cl)c1)CO2 [Compound 95]
EC50: 10 to 100 nM
